Assay results taken from patent US12419870B2, “Compositions and methods for immune cell modulation in adoptive immunotherapies” (Fate Therapeutics, Inc., priority 2016, dated 2025).
At least one compound was matched to its structure with a doubt left.

What was measured:
viable CD8+ population = experiment: In vitro T cell culture compound screen, flow cytometry for cells co-expressing CCR7 and CD62L in CD8+ cells; type: cell-based, human; details: 10 μM, about 6 days; for CD8 Hit: anti-CD3/anti-CD28 beads, hit criteria: Z-score > +2 for percent or relative absolute number of CCR7+CD62L+ cells; for number or ratio of cells co-expressing CCR7 and CD62L: viable CD8+ population
Excerpt: (§1) In Vitro T Cell Culture. Fresh leukopaks (AllCells, Alameda, CA) were obtained from healthy donors, from which T cells were negatively selected using the EasySep Human T Cell Enrichment Kit (Stem Cell Technologies, Vancouver, Canada). The freshly isolated T cells were aliquoted and cryopreserved. On the day the screens were initiated, T cells were thawed and washed into X-Vivo 15 with 5% human AB serum, IL-2, pen/strep, and additional supplements. Cells were dispensed into flat-bottom 384-well plates at 5×10^5 cells/ml with anti-CD3/Anti-CD28 dynabeads (ThermoFisher, Waltham, MA) at a 3:1 bead-to-cell ratio. Individual compounds were added at a final concentration of 10 μM to each well from column 3 to column 22 of each plate. Positive and negative controls were added to additional wells. Cells were incubated for about 6 days at 37 degrees with 5% CO2.
Flow Cytometry. On Day 6 of culture, cells were stained with a fixable viability marker and fluorophore-conjugated antibodies: CD3, CD4, CD8, CD45RA, CD45RO, CD62L, CCR7, CD27, and CD122 (BD Biosciences, San Jose, CA; and BioLegend, San Diego, CA). Fluorescent absolute counting beads (Spherotech, Lake Forest, IL) were added just prior to acquisition. Data acquisition was performed on a BD Fortessa X-20 (BD Biosciences) and data were analyzed using Treestar software (FlowJo, Ashland, OR) and Spotfire (Tibco, Boston, MA).
These cells are characterized by expression of CCR7 and CD62L. Therefore, cells co-expressing both of these identifying markers were evaluated. Within the viable CD4+ population and viable CD8+ population, the percent of cells co-expressing CCR7 and CD62L was determined. The expression of either CD62L or CCR7 on T cells, as indicative of the desired T cell subsets, have been described as having favorable functional characteristics for CAR-T cell therapy, and potentially other adoptive T cell therapies.
The number of events in each of these gates relative to the number of absolute counting beads in each sample was calculated, defining a relative measure of the absolute number of naïve, stem cell memory, or central memory T cells within the CD4+ and/or CD8+ populations. A z-Score relative to the screened compound samples within each 384-well plate was calculated for each of these four values: 1) percent CCR7+CD62L+ in CD4+, 2) percent CCR7+CD62L+ in CD8+, 3) absolute relative number of CCR7+CD62L+ in CD4+, and 4) absolute relative number of CCR7+CD62L+ in CD8+(FIGS. 1A and 1i). Z-scores were also calculated for the percent viability of all cells within each sample and the relative absolute number of cells within each sample. A “Z-Score” is a statistical measurement of a score's relationship to the mean in a group of scores. A Z-score of 0 means the score is the same as the mean. A Z-score can also be positive or negative, indicating whether it is above or below the mean and by how many standard deviations.

viable CD4+ population = experiment: In vitro T cell culture compound screen, flow cytometry for cells co-expressing CCR7 and CD62L in CD4+ cells; type: cell-based, human; details: 10 μM, about 6 days; for CD4 Hit: anti-CD3/anti-CD28 beads, hit criteria: Z-score > +2 for percent or relative absolute number of CCR7+CD62L+ cells
Excerpt: as §1
Flow Cytometry. […] Data acquisition was performed on a BD Fortessa X-20 (BD Biosciences) and data were analyzed using Treestar software (FlowJo, Ashland, OR) and Spotfire (Tibco, Boston, MA).
These cells are characterized by expression of CCR7 and CD62L. Therefore, cells co-expressing both of these identifying markers were evaluated. Within the viable CD4+ population and viable CD8+ population, the percent of cells co-expressing CCR7 and CD62L was determined. […]
The number of events in each of these gates relative to the number of absolute counting beads in each sample was calculated, defining a relative measure of the absolute number of naïve, stem cell memory, or central memory T cells within the CD4+ and/or CD8+ populations. A z-Score relative to the screened compound samples within each 384-well plate was calculated for each of these four values: 1) percent CCR7+CD62L+ in CD4+, 2) percent CCR7+CD62L+ in CD8+, 3) absolute relative number of CCR7+CD62L+ in CD4+, and 4) absolute relative number of CCR7+CD62L+ in CD8+(FIGS. 1A and 1i). Z-scores were also calculated for the percent viability of all cells within each sample and the relative absolute number of cells within each sample. […]

CD8 CAR-T cells = experiment: Exhaustion marker (PD-1, Tim-3) expression on CAR-T cells by flow cytometry; type: cell-based, human; details: 20 nM rapa, 10 μM dmPGE2 or both; two donors; relative to vehicle
Excerpt: T cell dysfunction due to ‘exhaustion’ is a state that can preclude adequate control of cancer or infection.

Nalm6 tumor cells = experiment: In vitro serial killing assay of CAR-T cells co-cultured with tumor cells; type: cell-based, human; details: three rounds of in vitro killing
Nalm-6-luc = experiment: In vivo efficacy of cryopreserved compound-treated CAR-T cells in tumor-bearing NSG mice
[1] = suboptimal dose 0.2×10^6, four mice per group

## c1cc(-c2cnn3cc(-c4ccc(OCCN5CCCCC5)cc4)cnc23)ccn1 [Dorsomorphin]
Viable CD8+ population
  CD8 Hit: CD8
  number or ratio of cells co-expressing CCR7 and CD62L: increased
Viable CD4+ population
  CD4 Hit: CD4
Viable CD4+ population; viable CD4+ population
  number or ratio of cells co-expressing CCR7 and CD62L: increased

## Nc1nc(F)nc2c1ncn2[C@@H]1O[C@H](CO)[C@@H](O)[C@@H]1O [Fludarabine]
Viable CD8+ population
  CD8 Hit: CD8
  number or ratio of cells co-expressing CCR7 and CD62L: increased

## CO[C@H]1C[C@@H]2CC[C@@H](C)[C@@](O)(O2)C(=O)C(=O)N2CCCC[C@H]2C(=O)O[C@H]([C@H](C)C[C@@H]2CC[C@@H](O)[C@H](OC)C2)CC(=O)[C@H](C)/C=C(\C)[C@@H](O)[C@@H](OC)C(=O)[C@H](C)C[C@H](C)/C=C/C=C/C=C/1C [rapamycin]
Viable CD8+ population
  number or ratio of cells co-expressing CCR7 and CD62L: increased
Viable CD4+ population
  CD4 Hit: CD4
CD8 CAR-T cells
  PD-1 expression: decreased
  Tim-3 expression: decreased
Nalm6 tumor cells
  clearing of target cells over time by previously treated CAR-T cells: successfully cleared target cells
Nalm-6-luc; [1]
  mice able to reduce tumor burden below detection: three
  mice able to sustain long-term anti-tumor responses: one of those three
  mice that relapsed: one of four
Nalm-6-luc; suboptimal dose of CAR-T cells (0.2×10^6)
  reduction of tumor burden within a week of adoptive transfer: able to reduce tumor burden
